Source: article PMC4488664, “An Inactive Geminin Mutant That Binds Cdt1” (Genes, 2015)
Results are given in words; binding and its absence hold for the method and conditions named. Binding seen in cells or lysates may run through a third protein. Some entries that bind do so weakly or less than the wild type. Where a sequence is shown, tags or fusion partners need not be part of it.

By UniProt entry, the sequences of proteins in these tests, tags left out. Where a name states a change or a piece, a line headed by the entry shows the natural chain unless it says otherwise.
UniProt P49717: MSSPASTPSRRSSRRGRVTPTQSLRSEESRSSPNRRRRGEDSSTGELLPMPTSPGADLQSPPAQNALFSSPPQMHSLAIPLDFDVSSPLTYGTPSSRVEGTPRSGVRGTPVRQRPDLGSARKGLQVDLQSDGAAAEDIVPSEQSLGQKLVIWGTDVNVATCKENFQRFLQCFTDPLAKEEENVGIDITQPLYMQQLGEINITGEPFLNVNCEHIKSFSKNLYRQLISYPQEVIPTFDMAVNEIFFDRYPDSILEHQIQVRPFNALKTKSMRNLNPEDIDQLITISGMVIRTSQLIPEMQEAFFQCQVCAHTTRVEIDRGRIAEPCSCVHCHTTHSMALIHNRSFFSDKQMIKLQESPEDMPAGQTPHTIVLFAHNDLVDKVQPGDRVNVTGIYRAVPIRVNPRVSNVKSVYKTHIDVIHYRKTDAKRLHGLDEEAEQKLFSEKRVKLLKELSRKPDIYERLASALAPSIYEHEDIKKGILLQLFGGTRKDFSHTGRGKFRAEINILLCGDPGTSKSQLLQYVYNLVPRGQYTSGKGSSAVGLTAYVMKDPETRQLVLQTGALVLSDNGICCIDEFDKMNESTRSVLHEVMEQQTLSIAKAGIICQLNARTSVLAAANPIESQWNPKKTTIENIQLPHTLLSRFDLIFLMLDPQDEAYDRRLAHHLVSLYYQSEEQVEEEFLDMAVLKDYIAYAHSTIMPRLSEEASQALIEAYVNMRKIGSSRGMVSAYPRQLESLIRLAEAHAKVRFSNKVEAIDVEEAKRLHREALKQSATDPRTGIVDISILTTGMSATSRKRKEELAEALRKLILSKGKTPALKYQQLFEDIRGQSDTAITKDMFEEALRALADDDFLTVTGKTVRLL
UniProt O95251: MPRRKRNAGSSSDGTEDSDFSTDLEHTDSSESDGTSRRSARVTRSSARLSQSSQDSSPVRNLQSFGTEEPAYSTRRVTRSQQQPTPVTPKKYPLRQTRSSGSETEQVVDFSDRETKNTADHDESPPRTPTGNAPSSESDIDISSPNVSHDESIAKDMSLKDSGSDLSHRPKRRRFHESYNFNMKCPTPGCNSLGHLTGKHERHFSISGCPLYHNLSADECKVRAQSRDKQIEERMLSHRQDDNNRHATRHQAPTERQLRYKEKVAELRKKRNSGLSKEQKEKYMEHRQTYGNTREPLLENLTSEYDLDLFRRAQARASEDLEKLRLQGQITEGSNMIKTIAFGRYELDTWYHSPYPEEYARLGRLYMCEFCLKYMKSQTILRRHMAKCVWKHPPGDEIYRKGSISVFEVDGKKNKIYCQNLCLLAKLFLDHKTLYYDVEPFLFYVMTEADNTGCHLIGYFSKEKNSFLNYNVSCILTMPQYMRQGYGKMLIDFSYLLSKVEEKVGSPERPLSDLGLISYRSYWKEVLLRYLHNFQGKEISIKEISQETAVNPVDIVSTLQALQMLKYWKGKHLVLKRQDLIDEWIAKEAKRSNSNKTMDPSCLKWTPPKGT

T1: in vitro-translated mouse Myc-Cdt1 (mouse) (UniProt Q8R4E9)
T1 sequence: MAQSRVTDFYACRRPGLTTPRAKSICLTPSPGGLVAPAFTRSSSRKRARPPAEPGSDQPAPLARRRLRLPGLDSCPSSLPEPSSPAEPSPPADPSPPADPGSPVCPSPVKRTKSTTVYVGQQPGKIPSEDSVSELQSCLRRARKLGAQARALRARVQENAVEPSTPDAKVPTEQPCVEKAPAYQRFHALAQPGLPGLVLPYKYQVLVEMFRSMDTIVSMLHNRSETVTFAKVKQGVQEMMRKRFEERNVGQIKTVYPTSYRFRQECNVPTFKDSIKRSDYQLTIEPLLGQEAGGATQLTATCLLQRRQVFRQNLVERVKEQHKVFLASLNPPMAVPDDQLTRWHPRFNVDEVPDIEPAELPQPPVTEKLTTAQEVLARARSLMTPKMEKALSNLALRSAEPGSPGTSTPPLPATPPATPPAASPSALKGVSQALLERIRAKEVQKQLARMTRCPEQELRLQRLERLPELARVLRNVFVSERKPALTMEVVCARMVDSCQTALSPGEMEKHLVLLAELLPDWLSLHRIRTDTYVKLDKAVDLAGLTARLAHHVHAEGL

T2: HA-Cdt1 (UniProt Q9H211)
T2 sequence: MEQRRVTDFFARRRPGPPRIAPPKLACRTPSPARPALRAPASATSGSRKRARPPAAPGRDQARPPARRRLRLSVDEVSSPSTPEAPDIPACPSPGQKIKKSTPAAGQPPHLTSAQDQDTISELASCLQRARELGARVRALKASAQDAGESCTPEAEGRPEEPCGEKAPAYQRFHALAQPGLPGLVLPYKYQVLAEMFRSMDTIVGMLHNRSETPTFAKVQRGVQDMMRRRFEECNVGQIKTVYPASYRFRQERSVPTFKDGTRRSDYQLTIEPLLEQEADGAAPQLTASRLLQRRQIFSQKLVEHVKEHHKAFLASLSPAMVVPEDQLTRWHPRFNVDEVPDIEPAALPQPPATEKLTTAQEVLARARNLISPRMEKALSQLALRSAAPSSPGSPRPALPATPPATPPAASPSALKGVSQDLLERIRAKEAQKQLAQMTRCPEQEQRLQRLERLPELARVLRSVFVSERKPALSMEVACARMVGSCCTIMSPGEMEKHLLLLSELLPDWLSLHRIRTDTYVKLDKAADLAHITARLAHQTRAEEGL


How the values were obtained:
[1] = target: T1, in vitro-translated mouse Myc-Cdt1 (mouse); test: co-IP; reticulocyte lysate with in vitro-translated mouse Myc-Cdt1 incubated on ice with recombinant Geminin (5, 10 or 40 µg/mL), then with purified mouse MCM4/6/7 complex (50 ng); anti-Myc 9E10 sepharose, 4 °C; washed with PBS and IP buffer; blotted for MCM4; only the binder purified
[2] = target: T2, HA-Cdt1; test: co-IP; lysates of HeLa cells expressing HA-Cdt1 and FLAG-HBO1 precipitated with anti-HA antibody
[3] = target: HA-Cdt1:FLAG-HBO1 complex (UniProt Q9H211); test: pull-down; HA-Cdt1:FLAG-HBO1 complex precipitated from HeLa lysate on anti-HA beads, incubated with recombinant mouse Geminin; extensive washing; bound Geminin by immunoblotting; only the binder purified

binding [1]	Molecule	further results
binds	purified mouse MCM4/6/7 complex (from UniProt P49717 1-862; P97311 1-821; Q61881 1-719)	
	FLAG-HBO1 (from UniProt O95251 1-611) (enzyme)	binding [2]: binds
	mouse His6-Geminin^WT, full length (protein, UniProt O88513 1-206) MNLSMKQKQEGAQENVKNSPVPRRTLKMIQPSADGSLVGRENELPKGLFKRKLWDDQLASQTSSCGPEANENKDVGDLTQEAFDLISKENPSSQYWKEVAEQRRKALYEALKENEKLHKEIEQKDSEIARLRKENKDLAEVAEHVQYMAEVIERLSNEPLDNFESPDSQEFDSEEEAVEYSELEDSGAGTCAEETVSSSTDARPCT	binding [3]: binds
binds	recombinant Geminin^WT (Figure 3A) (protein, UniProt O88513 1-206) MNLSMKQKQEGAQENVKNSPVPRRTLKMIQPSADGSLVGRENELPKGLFKRKLWDDQLASQTSSCGPEANENKDVGDLTQEAFDLISKENPSSQYWKEVAEQRRKALYEALKENEKLHKEIEQKDSEIARLRKENKDLAEVAEHVQYMAEVIERLSNEPLDNFESPDSQEFDSEEEAVEYSELEDSGAGTCAEETVSSSTDARPCT	
